The text below walks through data of paper PMC5646246, “Unraveling the Self-Assembly of the Pseudomonas aeruginosa XcpQ Secretin Periplasmic Domain Provides New Molecular Insights into Type II Secretion System Secreton Architecture and Dynamics” (mBio, 2017).

The chains behind the UniProt entries cited, without tags or fusion partners. Residues count along the entry.
UniProt Q51575, residues 56-235: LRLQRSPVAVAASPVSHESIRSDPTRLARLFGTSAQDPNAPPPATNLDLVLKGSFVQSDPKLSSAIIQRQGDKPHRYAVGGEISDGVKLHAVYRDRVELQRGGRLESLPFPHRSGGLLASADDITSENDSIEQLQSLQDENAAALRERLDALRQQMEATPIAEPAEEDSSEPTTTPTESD

These are yes or no findings as the source states them, for the method shown. Some entries that bind do so weakly or less than the wild type.

The target of assay [1] is soluble XcpP periplasmic domain (XcpPp) (Pseudomonas aeruginosa) (UniProt Q51575). Briefly: BLI; sensor coupled to CbpD or to XcpPp; XcpQ_(N012) alone or the XcpQ_(N012)-vHH04 complex in solution; both purified. (Biolayer interferometry detects binding as a change in optical thickness at a sensor tip.)
Assay [2] addresses full-length XcpQ secretin (wild type) (Pseudomonas aeruginosa) (UniProt P35818). Briefly: immunoblot of samples under nondenaturing and reducing conditions; protein samples from P. aeruginosa strains producing full-length XcpQ or cysteine variants; assembled secretin channels detected. In general terms: A western blot detects proteins with antibodies after separation by electrophoresis.

B1: XcpQ_(N012) (N0, N1 and N2 subdomains of the periplasmic N-terminal domain of the P. aeruginosa XcpQ secretin) (domain or fragment, Pseudomonas aeruginosa)
chain: ENSGGNAFVPAGNQQEAHWTINLKDADIREFIDQISEITGETFVVDPRVKGQVSVVSKAQLSLSEVYQLFLSVMSTHGFTVVAQGDQARIVPNAEAKTEAGGGQSAPDRLETRVIQVQQSPVSELIPLIRPLVPQYGHLAAVPSANALIISDRSANIARIEDVIRQLDQKGSHDYSVINLRYGWVMDAAEVLNNAMSRGQAKGAAGAQVIADARTNRLIILGPPQARAKLVQLAQSLDTPTAR
notes: XcpQ secretin of the Xcp type II secretion system, Pseudomonas aeruginosa; subdomains N0, N1 and N2; 26 kDa; the whole N domain covers residues 51 to 365; Found in solution as dimers (L) and dodecamers (H); also called matured XcpQ_(N012); untagged XcpQ_(N012)
As to B1, in assay [1], the binding result was “binds”.

B2: full-length XcpQ secretin (wild type) (protein, UniProt P35818 35-658)
chain: ENSGGNAFVPAGNQQEAHWTINLKDADIREFIDQISEITGETFVVDPRVKGQVSVVSKAQLSLSEVYQLFLSVMSTHGFTVVAQGDQARIVPNAEAKTEAGGGQSAPDRLETRVIQVQQSPVSELIPLIRPLVPQYGHLAAVPSANALIISDRSANIARIEDVIRQLDQKGSHDYSVINLRYGWVMDAAEVLNNAMSRGQAKGAAGAQVIADARTNRLIILGPPQARAKLVQLAQSLDTPTARSANTRVIRLRHNDAKTLAETLGQISEGMKNNGGQGGEQTGGGRPSNILIRADESTNALVLLADPDTVNALEDIVRQLDVPRAQVLVEAAIVEISGDIQDAVGVQWAINKGGMGGTKTNFANTGLSIGTLLQSLESNKAPESIPDGAIVGIGSSSFGALVTALSANTKSNLLSTPSLLTLDNQKAEILVGQNVPFQTGSYTTNSEGSSNPFTTVERKDIGVSLKVTPHINDGAALRLEIEQEISALLPNAQQRNNTDLITSKRSIKSTILAENGQVIVIGGLIQDDVSQAESKVPLLGDIPLLGRLFRSTKDTHTKRNLMVFLRPTVVRDSAGLAALSGKKYSDIRVIDGTRGPEGRPSILPTNANQLFDGQAVDLRELMTE
In the case of B2, the binding entry in assay [2] is listed as “binds”.
